Experimental data reported in PubChem BioAssay AID330 (DTP/NCI, 2004).
The list shows only some results of the screen, not a fair sample: it is rich in T/C values a quarter to a half above the control, in often repeated tests (any T/C) and in doses without a T/C. Further doses and runs are listed elsewhere. T/C: endpoint of the treated group in % of that of the vehicle group. Some entries give survivors of the animals treated and no T/C: the source holds a T/C of zero for them, seemingly a mark for toxic or unscored doses. Some survivor counts are full or nearly so, which does not show that the dose was tolerated: the source hardly ever lists a survival T/C far under the control, and the zero likely stands for such cases as well. Counts of survivors are from the toxicity check (mostly the fifth day) where no day follows; animals may have died later. Schedule codes are those of the source, taken here to give the interval after Q, in days (D) or hours (H), and the number of doses after X. Some entries were tested several times; the values are given in rising order. Where survival is the endpoint, this PubChem deposit counts one and a half times the control or more as active, and values a quarter to a half above the control carry no call in these data; other NCI protocols may use other cut-offs. Signs of the kind (2×) stand for listed records that agree.

Tested on: P388 leukemia ip, CD2F1 mice, survival T/C
Test: NCI In Vivo Anticancer Drug Screen. Data for tumor model P388 Leukemia (intraperitoneal) in CD2F1 (CDF1) mice
Conditions: T/C endpoint: median survival time, higher T/C = longer survival
[1] = dose: 25.0 mg/kg/injection, schedule: Q01DX009 (ip), vehicle: saline
[2] = dose: 50.0 mg/kg/injection, schedule: Q01DX009 (ip), vehicle: saline
[3] = dose: 25.0 mg/kg/injection, schedule: Q01DX009 (ip), vehicle: saline with Tween-80
[4] = dose: 50.0 mg/kg/injection, schedule: Q01DX009 (ip), vehicle: saline with Tween-80
[5] = dose: 100.0 mg/kg/injection, schedule: Q01DX009 (ip), vehicle: saline with Tween-80
[6] = dose: 200.0 mg/kg/injection, schedule: Q01DX009 (ip), vehicle: saline with Tween-80
[7] = dose: 240.0 mg/kg/injection, schedule: Q01DX005 (ip), vehicle: saline with Tween-80

Q: Which results are given for CCCCCCCCCCCCCCCC[N+](C)(C)CCSC(C)=O?
A: survivor count (dose: 12.5 mg/kg/injection, schedule: Q01DX009 (ip), vehicle: acetone): 0 of 6; survivor count (dose: 25.0 mg/kg/injection, schedule: Q01DX009 (ip), vehicle: acetone): 0 of 6; survivor count (dose: 50.0 mg/kg/injection, schedule: Q01DX009 (ip), vehicle: acetone): 0 of 6; survivor count (dose: 100.0 mg/kg/injection, schedule: Q01DX009 (ip), vehicle: acetone): 0 of 6; survivor count (dose: 200.0 mg/kg/injection, schedule: Q01DX009 (ip), vehicle: acetone): 0 of 6

Q: Which survivor count (dose: 200.0 mg/kg/injection, schedule: Q04DX003 (ip), vehicle: saline with Tween-80) does the source give for O=c1[nH]cc(S)c(=O)[nH]1 here?
A: The survivor count was 3 of 6.

Q: CN(C)CCCCNc1ccc(NCCCCN(C)C)c2c1C(=O)c1c(O)ccc(O)c1C2=O was tested. Which survivor count [1] did it give?
A: Its survivor count is 2 of 6.

Q: What about the survivor count [2] of the same compound?
A: Its survivor count is 5 of 6.

Q: And the survivor count (dose: 100.0 mg/kg/injection, schedule: Q01DX009 (ip), vehicle: saline)?
A: The survivor count was 1 of 6.

Q: And the survivor count (dose: 200.0 mg/kg/injection, schedule: Q01DX009 (ip), vehicle: saline)?
A: The survivor count was 0 of 6.

Q: For O=c1n(-c2ccccc2)c(=O)n2n1C1C3C4C5C1C5C2C43 (stereo unspecified), which survivor count (dose: 25.0 mg/kg/injection, schedule: Q01DX009 (ip), vehicle: Klucel (hydroxypropylcellulose) (HPC)) is on record?
A: The survivor count was 5 of 6.

Q: Which results are given for CC(C)(C#N)OC(=O)c1cccc(C(=O)OC(C)(C)C#N)c1Sc1ccccc1?
A: survivor count (dose: 200.0 mg/kg/injection, schedule: Q01DX001 (ip), vehicle: other): 3 of 6; survivor count (dose: 400.0 mg/kg/injection, schedule: Q01DX001 (ip), vehicle: other): 4 of 6

Q: Which survivor count (dose: 80.0 mg/kg/injection, schedule: Q01DX005 (ip), vehicle: Klucel (hydroxypropylcellulose) (HPC)) does the source give for CCCCCCCCCCC/C=C/[N+](=O)[O-] here?
A: Its survivor count is 0 of 6.

Q: CCCCCCCCCCCCCCCCNCC(O)CN (stereo unspecified) was tested. Which survivor count [3] did it give?
A: Its survivor count is 1 of 5.

Q: For c1ccc(N2CCN(c3ccccc3)C2=C2N(c3ccccc3)CCN2c2ccccc2)cc1, which survivor count (dose: 50.0 mg/kg/injection, schedule: Q01DX005 (ip), vehicle: saline) is on record?
A: The survivor count was 1 of 3 and 2 of 6.

Q: What about the survivor count (dose: 100.0 mg/kg/injection, schedule: Q01DX005 (ip), vehicle: saline) of the same compound?
A: Its survivor count is 0 of 6.

Q: What about the survivor count (dose: 200.0 mg/kg/injection, schedule: Q01DX005 (ip), vehicle: saline) of the same compound?
A: The survivor count was 0 of 6.

Q: How did the survivor count (dose: 12.5 mg/kg/injection, schedule: Q01DX009 (ip), vehicle: saline with Tween-80) turn out when COC1(OC)C2CCC1C(Cl)=C2Cl was run?
A: Its survivor count is 4 of 6.

Q: What about the survivor count [3] of the same compound?
A: The survivor count was 0 of 6 and 1 of 6.

Q: And the survivor count [4]?
A: The survivor count was 1 of 6.

Q: What about the survivor count [5] of the same compound?
A: The survivor count was 0 of 6.

Q: For O=[N+]([O-])c1ccc(C=C2C=CN(CCO)C=C2)cc1, which survivor count (dose: 200.0 mg/kg/injection, schedule: Q01DX005 (ip), vehicle: saline with Tween-80) is on record?
A: Its survivor count is 3 of 6.

Q: How did the survivor count (dose: 100.0 mg/kg/injection, schedule: Q01DX005 (ip), vehicle: saline with Tween-80) turn out when CC(=O)Nc1ccc(-c2csc(Nc3ccnc4cc(Cl)ccc34)n2)cc1 was run?
A: Its survivor count is 6 of 6.

Q: How did the survivor count [5] turn out when COc1ccc(C(=O)C(Br)C(Br)C(=O)O)cc1 (stereo unspecified) was run?
A: The survivor count was 2 of 6.

Q: And the survivor count [6]?
A: Its survivor count is 0 of 6.

Q: Which survivor count [2] does the source give for FC(F)(F)c1cccc(NC(=S)SCc2ccc(Cl)c(Cl)c2)c1 here?
A: The survivor count was 6 of 6.

Q: What about the survivor count (dose: 100.0 mg/kg/injection, schedule: Q01DX009 (ip), vehicle: suspension in saline) of the same compound?
A: The survivor count was 2 of 6.

Q: Which survivor count (dose: 25.0 mg/kg/injection, schedule: Q04DX002 (ip), vehicle: Klucel (hydroxypropylcellulose) (HPC)) does the source give for O=C(Nc1ccc(Cl)cc1)Nc1ccc(Cl)nn1 here?
A: The survivor count was 5 of 6.

Q: What about the survivor count (dose: 200.0 mg/kg/injection, schedule: Q04DX002 (ip), vehicle: Klucel (hydroxypropylcellulose) (HPC)) of the same compound?
A: The survivor count was 6 of 6.

Q: And the survivor count (dose: 400.0 mg/kg/injection, schedule: Q04DX002 (ip), vehicle: Klucel (hydroxypropylcellulose) (HPC))?
A: Its survivor count is 6 of 6.

Q: How did the survivor count (dose: 128.0 mg/kg/injection, schedule: Q01DX009 (ip), vehicle: Klucel (hydroxypropylcellulose) (HPC)) turn out when CC(C)NCC(O)COc1cccc2ccccc12 (stereo unspecified) was run?
A: Its survivor count is 0 of 6.

Q: How did the survivor count [5] turn out when CC(=O)O.CC(=O)O.[Co+2].[NH-]C(CCC(N)=O)C(=O)O.[NH-]C(CCC(N)=O)C(=O)O (stereo unspecified) was run?
A: The survivor count was 6 of 6.

Q: And the survivor count [6]?
A: The survivor count was 0 of 6.

Q: Which survivor count [7] does the source give for Nc1[nH]c(=O)ncc1-c1ccc(Cl)cc1 here?
A: Its survivor count is 1 of 6.

Q: How did the T/C [6] turn out when CCOC(=O)C(Cc1c[nH]c2ccccc12)NCc1ccc(N(CCCl)CCCl)cc1 (stereo unspecified) was run?
A: Its T/C is 126 % of control.

Q: With COc1cc2ccnc(C3(OC(=O)c4ccccc4)CCN(CCc4ccccc4)CC3)c2cc1OC as the compound, how does the survivor count [2] read?
A: Its survivor count is 6 of 6.

Q: And the survivor count [5]?
A: The survivor count was 6 of 6.

Q: What about the survivor count [6] of the same compound?
A: The survivor count was 6 of 6.

Q: Which results are given for O=C(CBr)N1c2ccccc2S(=O)(=O)c2ccc3ccccc3c21?
A: T/C (dose: 100.0 mg/kg/injection, schedule: Q01DX009 (ip), vehicle: Klucel (hydroxypropylcellulose) (HPC)): 125 and 134 % of control; T/C (dose: 200.0 mg/kg/injection, schedule: Q01DX009 (ip), vehicle: Klucel (hydroxypropylcellulose) (HPC)): 131 % of control

Q: How did the survivor count (dose: 120.0 mg/kg/injection, schedule: Q01DX005 (ip), vehicle: Klucel (hydroxypropylcellulose) (HPC)) turn out when CCOC(=O)c1c[nH]c2c(ccc3cccnc32)c1=O was run?
A: The survivor count was 3 of 6.

Q: And the survivor count (dose: 240.0 mg/kg/injection, schedule: Q01DX005 (ip), vehicle: Klucel (hydroxypropylcellulose) (HPC))?
A: Its survivor count is 1 of 6.

Q: Which results are given for CC(C)=CCCC(C)C1=C(O)C(=O)C(C)=CC1=O (stereo unspecified)?
A: survivor count (dose: 25.0 mg/kg/injection, schedule: Q01DX005 (ip), vehicle: Klucel (hydroxypropylcellulose) (HPC)): 1 of 6; survivor count (dose: 50.0 mg/kg/injection, schedule: Q01DX005 (ip), vehicle: Klucel (hydroxypropylcellulose) (HPC)): 0 of 6; survivor count (dose: 93.25 mg/kg/injection, schedule: Q01DX005 (ip), vehicle: Klucel (hydroxypropylcellulose) (HPC)): 0 of 6; survivor count (dose: 100.0 mg/kg/injection, schedule: Q01DX005 (ip), vehicle: Klucel (hydroxypropylcellulose) (HPC)): 0 of 6; survivor count (dose: 186.0 mg/kg/injection, schedule: Q01DX005 (ip), vehicle: Klucel (hydroxypropylcellulose) (HPC)): 0 of 6; survivor count (dose: 373.0 mg/kg/injection, schedule: Q01DX005 (ip), vehicle: Klucel (hydroxypropylcellulose) (HPC)): 0 of 6; survivor count (dose: 746.0 mg/kg/injection, schedule: Q01DX005 (ip), vehicle: Klucel (hydroxypropylcellulose) (HPC)): 0 of 6

Q: With O=C(O)CS(=O)(=O)N1CCOCC1 as the compound, how does the survivor count (dose: 200.0 mg/kg/injection, schedule: Q01DX005 (ip), vehicle: Klucel (hydroxypropylcellulose) (HPC)) read?
A: The survivor count was 6 of 6.

Q: Which T/C (dose: 400.0 mg/kg/injection, schedule: Q04DX002 (ip), vehicle: saline with Tween-80) does the source give for CC1=C(C)C(=O)C(C(C)(C)CC(=O)Sc2ncnc3nc[nH]c23)=C(C)C1=O here?
A: The T/C was 125 % of control.

Q: Which survivor count [1] does the source give for C=CC(=NC(C)(C)C)Nc1ccccc1Cl here?
A: Its survivor count is 3 of 6.

Q: And the survivor count [4]?
A: Its survivor count is 0 of 6.

Q: And the survivor count [2]?
A: Its survivor count is 0 of 6.

Q: And the survivor count [5]?
A: The survivor count was 0 of 6.

Q: And the survivor count [6]?
A: Its survivor count is 0 of 6.

Q: CCCNC(=O)OCc1c(COC(=O)NCCC)c(-c2ccc(Cl)c(Cl)c2)n2c1CCC2 was tested. Which T/C (dose: 5.0 mg/kg/injection, schedule: Q01DX009 (ip), vehicle: distilled water + Tween-80) did it give?
A: The T/C was 125 % of control (2×).

Q: And the T/C (dose: 10.0 mg/kg/injection, schedule: Q01DX009 (ip), vehicle: distilled water + Tween-80)?
A: Its T/C is 134 and 145 % of control.

Q: What about the T/C (dose: 20.0 mg/kg/injection, schedule: Q01DX009 (ip), vehicle: distilled water + Tween-80) of the same compound?
A: The T/C was 136 % of control.

Q: What about the T/C (dose: 25.0 mg/kg/injection, schedule: Q01DX009 (ip), vehicle: distilled water + Tween-80) of the same compound?
A: The T/C was 141 % of control.

Q: And the survivor count (dose: 200.0 mg/kg/injection, schedule: Q01DX009 (ip), vehicle: distilled water + Tween-80)?
A: Its survivor count is 0 of 6.

Q: With NC(=O)/C=C/C(=O)c1c(Cl)cccc1Cl as the compound, how does the survivor count [3] read?
A: Its survivor count is 4 of 6.

Q: And the survivor count [4]?
A: Its survivor count is 0 of 6.

Q: For Cc1ccc2c(c1)nc(C)c(=O)n2CC1CCCN2CCCC[C@H]12 (stereo partly specified), which survivor count (dose: 120.0 mg/kg/injection, schedule: Q01DX005 (ip), vehicle: saline with Tween-80) is on record?
A: Its survivor count is 3 of 6.

Q: What about the survivor count [7] of the same compound?
A: The survivor count was 0 of 6.
